In paper PMC7374170, “TRIB3-EGFR interaction promotes lung cancer progression and defines a therapeutic target” (Nature Communications, 2020):
No constants are given. Whether binding was seen depends on the method and setting. Binding seen in cells or lysates may run through a third protein. These calls come from enrichment with a bait or labelling near it, and not all partners need be listed.

Biological target: epidermal growth factor receptor (EGFR), endogenous (human (endogenous in A549)) (UniProt P00533)
Test: affinity purification with mass spectrometry; IP of lysates from A549 cells with an anti-EGFR antibody, then mass spectrometry-based proteomic analysis

Substance: C-terminus of Hsc70-interacting protein (CHIP), endogenous (from UniProt Q9UNE7 1-303) (enzyme)
- binding: binds
